PubChem BioAssay AID1259254, NCATS – 2017

Test: 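Finding genes that stop cells copying their DNA twice in one cycle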 (primary screen)
Cell system: human HCT116 colorectal cancer cells
Knock-down reagent: single siRNA against human genes
Timing: 3 days
Measurement: 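Imaged Hoechst DNA stain sorts each cell into a cycle phase by DNA amount; per plate, G2 fraction set to 0% for non-targeting and 100% for GMNN siRNA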
Reading the numbers: G2 robust z-score: higher = more G2 cells, more excess DNA replication
Hit rule: 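An siRNA counts as active if its G2 robust z-score lies at least 5 MADs above the screen median; here such calls match roughly 38% of GMNN control or more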
Shown is a random part of about 59,000 reagents tested. About 1,550 of them (2.6%) were called active. 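G2 share is only a proxy for re-replication; each gene was hit by three separate siRNAs, and active genes were retested.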 Entries without a mark were called inactive. Reagents against one gene are numbered here. Further read-outs or replicates are left out here. Not given: the amount of reagent.

Target gene	siRNA no.	G2 robust z-score
MAP2K5	1	0.323
MAP2K5	2	-0.18
MAP2K5	3	-0.14
MITD1	1	-1.19
MITD1	2	2.06
MITD1	3	-0.157
ANKRD36BP2	1	-0.154
ANKRD36BP2	2	0.256
ANKRD36BP2	3	3.02
CDK5R2	1	-0.237
CDK5R2	2	-0.812
CDK5R2	3	-1.51
MGME1	1	-0.00497
MGME1	2	-0.766
MGME1	3	0.388
TTI1	1	-0.394
TTI1	2	-0.0187
TTI1	3	3.67
ERV3-1	1	0.956
ERV3-1	2	0.0923
ERV3-1	3	0.914
PRKCA	1	-0.56
PRKCA	2	0.959
PRKCA	3	0.133
LINC00927	1	-0.0199
LINC00927	2	6.87 (active)
LINC00927	3	2.15
TMEM220	1	-0.107
TMEM220	2	-0.197
TMEM220	3	-0.91
AQR	1	0.499
AQR	2	0.898
AQR	3	-0.784
VMA12	1	-0.252
VMA12	2	4.87
VMA12	3	-0.205
MFSD1	1	-0.143
MFSD1	2	-1.04
MFSD1	3	-0.127
C3AR1	1	3.89
C3AR1	2	0.204
C3AR1	3	0.817
CKMT2	1	-0.263
CKMT2	2	-1.7
CKMT2	3	0.0389

Reformatted: results already given
Target gene | siRNA no. | G2 robust z-score
PRKCA | 2 | 0.959
PRKCA | 3 | 0.133
LINC00927 | 1 | -0.0199
LINC00927 | 2 | 6.87 (active)
LINC00927 | 3 | 2.15

Additional records follow.
Target gene	siRNA no.	G2 robust z-score
NSUN5P2	1	-0.637
NSUN5P2	2	1.37
NSUN5P2	3	-0.847
IL32	1	-0.355
IL32	2	-0.8
IL32	3	-0.954
PDCL	1	-0.371
PDCL	2	-1.47
PDCL	3	-0.909
PLPPR1	1	0.744
PLPPR1	2	1.31
PLPPR1	3	-0.202
SPAM1	1	1.7
SPAM1	2	-0.735
SPAM1	3	0.8
MED16	1	-0.709
MED16	2	4.23
MED16	3	-1.07
PARPBP	1	1.18
PARPBP	2	4.32
PARPBP	3	-0.463
ZSCAN1	1	-0.748
ZSCAN1	2	-0.936
ZSCAN1	3	-0.572
